Measured values as given in article PMC11432330, “Novel Drug-like HsrA Inhibitors Exhibit Potent Narrow-Spectrum Antimicrobial Activities against Helicobacter pylori” (International Journal of Molecular Sciences, 2024).
Further values from the same series stand in other lists.

System: H. pylori 26695
Experiment: In vivo inhibition of HsrA: RNA-Seq transcriptomic analysis of exposed cells
Format: cell-based, Helicobacter pylori
Experimental: Bacterial growth from three blood agar plates of H. pylori ATCC 700392 (aka 26695) incubated for 48 h at 37 °C under microaerobic conditions was aseptically resuspended in BHI + FBS and adjusted to 10^7 CFU/mL. BHI broth cultures were incubated microaerobically at 37 °C for 24 h. […] At this time, bacterial growth was stopped by adding 1.5 mL ice-cold RNA stop solution (95% absolute ethanol, 5% acid-buffered phenol) and subsequently incubated on ice. Control samples were exposed to the same amount of DMSO instead of the inhibitor. Helicobacter cells from all samples were harvested by centrifugation (4000 rpm at 4 °C for 10 min), then the pellets were quickly frozen by immersion in liquid nitrogen and stored at −80 °C.
RNA-Seq analysis was performed by GENEWIZ (Azenta Life Sciences, Leipzig, Germany). Frozen cell pellets from two biological replicates of each treatment condition were properly submitted to GENEWIZ in dry ice. RNA-Seq libraries were prepared according to standard protocols via rRNA depletion, RNA fragmentation and random priming, reverse transcription, 5’-phosphorylation and dA-tailing of cDNAs, adaptor ligation, and PCR enrichment. Once the quality of each library was confirmed, they were sequenced on an Illumina NovaSeq 6000 (Illumina, San Diego, CA, USA) with 150-bp paired-ends. Raw sequence reads were filtered to remove possible adapter sequences and nucleotides with poor quality using Trimmomatic v.0.36 [105]. The trimmed reads were subsequently mapped to the H. pylori strain 26695 reference genome NC_000915.1 available on NCBI, by using the Bowtie2 aligner v.2.2.6 [106]. Unique gene hit counts were calculated by using featureCounts from the Subread package v.1.5.2. Only unique reads that fell within the gene regions were counted. Using DESeq2 [108], a comparison of the gene expression between the control and treated groups of samples was performed. The Wald test was used to generate p-values and log2 fold changes. Genes with an adjusted p-value < 0.05 and absolute log2 fold change >1 were considered as differentially expressed genes (DEGs) for each comparison. The RNA-Seq data generated in this study have been deposited in ArrayExpress with the accession number E-MTAB-14255.

NC(=NOC(=O)Nc1ccc(Cl)cc1)c1csc([N+](=O)[O-])c1 [Ligand V, N′-{[(4-chloroanilino)carbonyl]}oxy-5-nitrothiophene-3-carboximidamide]
log2 Fold Change (gene maf, exposed to lethal concentrations vs control): 1.639 | log2 Fold Change (gene metN, exposed to lethal concentrations vs control): 0.020 | log2 Fold Change (gene miaA, exposed to lethal concentrations vs control): -0.634 | log2 Fold Change (gene minE, exposed to lethal concentrations of V vs control): 0.969 | log2 Fold Change (gene moaA, exposed to lethal concentrations vs control): -0.107 | log2 Fold Change (gene mod, exposed to lethal concentrations vs control): 0.088 | log2 Fold Change (gene mogA, exposed to lethal concentrations vs control): -0.063 | log2 Fold Change (gene murC, exposed to lethal concentrations vs control): -0.837 | log2 Fold Change (gene murE, exposed to lethal concentrations vs control): -0.055 | log2 Fold Change (gene ndk, exposed to lethal concentrations vs control): 0.013 | log2 Fold Change (gene nhaA, exposed to lethal concentrations vs control): -0.086 | log2 Fold Change (gene nusG, exposed to lethal concentration of V vs control): -1.235 | log2 Fold Change (gene obgE, exposed to lethal concentrations of V vs control): 0.741 | log2 Fold Change (gene omp16, exposed to lethal concentrations vs control): -0.043 | log2 Fold Change (gene omp17, exposed to lethal concentration of V vs control): -1.702 | log2 Fold Change (gene oorA, exposed to lethal concentrations vs control): 0.119 | log2 Fold Change (gene oorB, exposed to lethal concentrations of V vs control): 0.608 | log2 Fold Change (gene oorD, exposed to lethal concentration of V vs control): -1.607 | log2 Fold Change (gene pcm, exposed to lethal concentrations vs control): 0.044 | log2 Fold Change (gene pdxA, exposed to lethal concentrations of V vs control): 0.660 | log2 Fold Change (gene pgi, exposed to lethal concentrations vs control): 1.423 | log2 Fold Change (gene pgk, exposed to lethal concentrations vs control): 1.084 | log2 Fold Change (gene porC, exposed to lethal concentrations vs control): -0.109 | log2 Fold Change (gene prfA, exposed to lethal concentration of V vs control): -2.614 | log2 Fold Change (gene prmA, exposed to lethal concentration of V vs control): -1.071 | log2 Fold Change (gene pyrB, exposed to lethal concentrations of V vs control): 0.732 | log2 Fold Change (gene pyrE, exposed to lethal concentrations vs control): -0.103 | log2 Fold Change (gene pyrG, exposed to lethal concentrations of V vs control): 0.887 | log2 Fold Change (gene queA, exposed to lethal concentrations vs control): -0.686 | log2 Fold Change (gene recR, exposed to lethal concentrations vs control): -0.107 | log2 Fold Change (gene rho, exposed to lethal concentration of V vs control): -1.178 | log2 Fold Change (gene ribA, exposed to lethal concentrations vs control): -0.706 | log2 Fold Change (gene ribC, exposed to lethal concentrations vs control): 0.034 | log2 Fold Change (gene ribH, exposed to lethal concentrations vs control): -0.107 | log2 Fold Change (gene rimM, exposed to lethal concentration of V vs control): -2.091 | log2 Fold Change (gene rnhB, exposed to lethal concentrations of V vs control): 0.784 | log2 Fold Change (gene rplA, exposed to lethal concentrations vs control): -0.831 | log2 Fold Change (gene rplC, exposed to lethal concentration of V vs control): -1.139 | log2 Fold Change (gene rplI, exposed to lethal concentrations vs control): -0.646 | log2 Fold Change (gene rplJ, exposed to lethal concentration of V vs control): -1.559 | log2 Fold Change (gene rplK, exposed to lethal concentration of V vs control): -1.051 | log2 Fold Change (gene rplL, exposed to lethal concentration of V vs control): -0.909 | log2 Fold Change (gene rplM, exposed to lethal concentration of V vs control): -1.617 | log2 Fold Change (gene rplN, exposed to lethal concentration of V vs control): -1.008 | log2 Fold Change (gene rplO, exposed to lethal concentrations vs control): -0.775 | log2 Fold Change (gene rplR, exposed to lethal concentration of V vs control): -1.415 | log2 Fold Change (gene rplS, exposed to lethal concentration of V vs control): -1.647 | log2 Fold Change (gene rplT, exposed to lethal concentration of V vs control): -2.027 | log2 Fold Change (gene rplU, exposed to lethal concentration of V vs control): -3.119 | log2 Fold Change (gene rplV, exposed to lethal concentrations vs control): -0.771 | log2 Fold Change (gene rpmA, exposed to lethal concentration of V vs control): -2.557 | log2 Fold Change (gene rpmB, exposed to lethal concentration of V vs control): -1.954 | log2 Fold Change (gene rpmC, exposed to lethal concentration of V vs control): -1.167 | log2 Fold Change (gene rpmE, exposed to lethal concentration of V vs control): -1.306 | log2 Fold Change (gene rpmF, exposed to lethal concentration of V vs control): -2.178 | log2 Fold Change (gene rpmG, exposed to lethal concentration of V vs control): -0.924 | log2 Fold Change (gene rpmH, exposed to lethal concentration of V vs control): -1.882 | log2 Fold Change (gene rpmI, exposed to lethal concentration of V vs control): -2.800 | log2 Fold Change (gene rpmJ, exposed to lethal concentration of V vs control): -2.194 | log2 Fold Change (gene rpsA, exposed to lethal concentration of V vs control): -1.293 | log2 Fold Change (gene rpsE, exposed to lethal concentration of V vs control): -1.306 | log2 Fold Change (gene rpsF, exposed to lethal concentrations vs control): -0.701 | log2 Fold Change (gene rpsJ, exposed to lethal concentration of V vs control): -2.618 | log2 Fold Change (gene rpsL, exposed to lethal concentration of V vs control): -1.140 | log2 Fold Change (gene rpsM, exposed to lethal concentration of V vs control): -1.699 | log2 Fold Change (gene rpsN, exposed to lethal concentrations vs control): -0.046 | log2 Fold Change (gene rpsO, exposed to lethal concentration of V vs control): -2.030 | log2 Fold Change (gene rpsP, exposed to lethal concentration of V vs control): -1.591 | log2 Fold Change (gene rpsQ, exposed to lethal concentration of V vs control): -0.989 | log2 Fold Change (gene rpsR, exposed to lethal concentrations vs control): -0.800 | log2 Fold Change (gene rpsT, exposed to lethal concentration of V vs control): -1.339 | log2 Fold Change (gene rpsU, exposed to lethal concentration of V vs control): -1.225 | log2 Fold Change (gene ruvC, exposed to lethal concentrations of V vs control): 0.985 | log2 Fold Change (gene secA, exposed to lethal concentrations of V vs control): 0.724 | log2 Fold Change (gene secE, exposed to lethal concentration of V vs control): -1.643 | log2 Fold Change (gene secY, exposed to lethal concentrations vs control): -0.782 | log2 Fold Change (gene surE, exposed to lethal concentrations vs control): -0.634 | log2 Fold Change (gene tRNA-Ala-1, exposed to lethal concentrations vs control): 1.893 | log2 Fold Change (gene tRNA-Ala-2, exposed to lethal concentrations vs control): 1.157 | log2 Fold Change (gene tRNA-Arg-1, exposed to lethal concentrations vs control): 1.443 | log2 Fold Change (gene tRNA-Arg-2, exposed to lethal concentrations of V vs control): 0.810 | log2 Fold Change (gene tRNA-Arg-3, exposed to lethal concentrations vs control): 1.517 | log2 Fold Change (gene tRNA-Asn-1, exposed to lethal concentrations vs control): 1.418 | log2 Fold Change (gene tRNA-Asp-1, exposed to lethal concentrations vs control): 1.454 | log2 Fold Change (gene tRNA-Cys-1, exposed to lethal concentrations vs control): 0.112 | log2 Fold Change (gene tRNA-Glu-1, exposed to lethal concentrations vs control): 1.436 | log2 Fold Change (gene tRNA-Gly-1, exposed to lethal concentrations of V vs control): 0.945 | log2 Fold Change (gene tRNA-Gly-2, exposed to lethal concentrations vs control): 1.265 | log2 Fold Change (gene tRNA-His-1, exposed to lethal concentrations vs control): 1.083 | log2 Fold Change (gene tRNA-Ile-1, exposed to lethal concentrations vs control): -0.803 | log2 Fold Change (gene tRNA-Leu-2, exposed to lethal concentrations vs control): 1.821 | log2 Fold Change (gene tRNA-Leu-3, exposed to lethal concentrations vs control): 1.654 | log2 Fold Change (gene tRNA-Met-1, exposed to lethal concentrations vs control): 2.141 | log2 Fold Change (gene tRNA-Met-2, exposed to lethal concentrations vs control): 1.113 | log2 Fold Change (gene tRNA-Met-3, exposed to lethal concentrations vs control): 1.875 | log2 Fold Change (gene tRNA-Phe-1, exposed to lethal concentrations of V vs control): 0.884 | log2 Fold Change (gene tRNA-Pro-1, exposed to lethal concentrations vs control): 1.415 | log2 Fold Change (gene tRNA-Pro-2, exposed to lethal concentrations vs control): -0.113 | log2 Fold Change (gene tRNA-Thr-2, exposed to lethal concentrations of V vs control): 0.891 | log2 Fold Change (gene tRNA-Tyr-1, exposed to lethal concentrations of V vs control): 0.552 | log2 Fold Change (gene tRNA-Val-2, exposed to lethal concentrations vs control): -0.623 | log2 Fold Change (gene thiE, exposed to lethal concentrations of V vs control): 0.732 | log2 Fold Change (gene thrS, exposed to lethal concentrations vs control): -0.703 | log2 Fold Change (gene thyX, exposed to lethal concentration of V vs control): -0.995 | log2 Fold Change (gene tig, exposed to lethal concentration of V vs control): -1.315 | log2 Fold Change (gene tolB, exposed to lethal concentration of V vs control): -0.933 | log2 Fold Change (gene tpiA, exposed to lethal concentrations vs control): -0.707 | log2 Fold Change (gene trmB, exposed to lethal concentrations vs control): -0.047 | log2 Fold Change (gene trmD, exposed to lethal concentration of V vs control): -1.325 | log2 Fold Change (gene trmE, exposed to lethal concentration of V vs control): -1.188 | log2 Fold Change (gene trpA, exposed to lethal concentrations vs control): -0.690 | log2 Fold Change (gene trpC, exposed to lethal concentrations of V vs control): 0.568 | log2 Fold Change (gene truA, exposed to lethal concentrations vs control): -0.677 | log2 Fold Change (gene tuf, exposed to lethal concentrations of V vs control): 0.500 | log2 Fold Change (gene ubiE, exposed to lethal concentrations vs control): -0.139 | log2 Fold Change (gene ureB, exposed to lethal concentrations of V vs control): 0.950 | log2 Fold Change (gene ureE, exposed to lethal concentrations vs control): -0.706 | log2 Fold Change (gene uvrC, exposed to lethal concentrations vs control): -0.752 | log2 Fold Change (gene valS, exposed to lethal concentrations of V vs control): 0.999 | log2 Fold Change (gene ychF, exposed to lethal concentrations vs control): 1.854
